# Results published in article PMC8581414.
# By UniProt entry, the sequences of proteins in these tests, tags left out.
# UniProt O60260: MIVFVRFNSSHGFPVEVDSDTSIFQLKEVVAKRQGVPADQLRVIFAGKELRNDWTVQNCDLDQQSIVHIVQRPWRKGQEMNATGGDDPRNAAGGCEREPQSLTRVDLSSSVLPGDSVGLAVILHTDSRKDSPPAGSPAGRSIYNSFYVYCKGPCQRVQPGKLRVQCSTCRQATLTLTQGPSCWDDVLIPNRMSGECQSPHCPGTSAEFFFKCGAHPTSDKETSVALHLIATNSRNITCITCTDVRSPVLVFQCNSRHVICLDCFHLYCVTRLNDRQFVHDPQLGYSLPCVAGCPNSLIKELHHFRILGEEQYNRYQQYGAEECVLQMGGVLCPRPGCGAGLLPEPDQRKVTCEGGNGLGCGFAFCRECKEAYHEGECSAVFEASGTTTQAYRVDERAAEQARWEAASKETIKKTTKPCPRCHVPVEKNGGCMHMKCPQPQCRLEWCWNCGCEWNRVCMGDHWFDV
# UniProt P20248: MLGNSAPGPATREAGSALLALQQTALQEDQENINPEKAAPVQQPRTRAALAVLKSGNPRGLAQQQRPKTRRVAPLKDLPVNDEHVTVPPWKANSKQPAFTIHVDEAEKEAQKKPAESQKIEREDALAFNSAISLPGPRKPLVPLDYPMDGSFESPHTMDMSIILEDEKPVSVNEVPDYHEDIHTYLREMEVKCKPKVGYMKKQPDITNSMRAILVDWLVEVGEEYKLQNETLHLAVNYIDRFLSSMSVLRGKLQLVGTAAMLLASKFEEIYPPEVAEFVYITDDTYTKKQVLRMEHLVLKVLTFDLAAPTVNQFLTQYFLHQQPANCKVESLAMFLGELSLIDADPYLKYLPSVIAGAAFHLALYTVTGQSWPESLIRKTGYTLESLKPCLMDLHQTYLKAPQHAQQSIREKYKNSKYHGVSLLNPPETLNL
# No constants are given. Whether binding was seen depends on the method and setting. In cells and extracts the contact can be indirect.
# Biological target: eGFP-Parkin fusion protein (eGFP-PKwt) (UniProt O60260)
# Assay: co-IP; GFP-Trap magnetic agarose (anti-GFP VHH beads) precipitates eGFP-PK from lysates of U87 cells co-transfected with CCNA2 or CCNB1; 10 mM Tris/HCl pH 7.5, 150 mM NaCl, 0.5 mM EDTA, 0.5% Nonidet P40 substitute; 100 ug protein, overnight, 4 washes; Western blot
substance,measurement,value
cyclin A2 (from UniProt P20248 1-432),binding,no binding
